Assay results from PMC11603770, “Validating anti-inflammatory and cytotoxic properties of Fagonia cretica L. through metabolic, in vitro, and in silico profiling” (BMC Complementary Medicine and Therapies, 2024).
≈ marks a conversion by molar mass, not a printed value.

What was measured:
[1] = test system: HepG2 cells (liver carcinoma cell line); test: MTT viability assay, HepG2; type: cell-based; details: Homo sapiens, 24 h
Procedure: (§1) The Cytotoxic activity was tested using the viability assay following the method reported by Mosmann, T., 1983 [21, 22]. HepG2 cells (liver carcinoma cell line), MCF-7cells (breast carcinoma cell line) and CACO2 cells (intestinal carcinoma cell line) (American Type Culture Collection ATCC, Rockville, MD) were applied through the tissue Culture Unit, the Egyptian Organization for Biological Products and Vaccines, Vacsera, Egypt. In brief, the tumor cell lines were suspended in medium at concentration 5 × 10^4 cell/ well in Corning® 96-well tissue culture plates and then incubated for 24 h. The alcoholic extract of F. cretica was then added into 96-well plates (three replicates) to achieve twelve concentrations. Six vehicle controls with media or 0.5% DMSO were run for each 96 well plate as a control. After incubating for 24 h, the number of viable cells was determined by the MTT test. Briefly, the media was removed from the 96 well plates and replaced with 100 µl of fresh culture RPMI 1640 medium without phenol red then 10 µl of the 12 mM MTT stock solution (5 mg of MTT in 1 ml of PBS) to each well including the untreated controls. […] Then, the optical density (OD) was measured at 590 nm with the microplate reader (SunRise, TECAN, Inc, USA) to determine the number of viable cells and the percentage of viability was calculated as follows: […]

[2] = test system: MCF-7 cells (breast carcinoma cell line); test: MTT viability assay, MCF-7; type: cell-based; details: Homo sapiens, MCF7, 24 h
Procedure: as §1

- IC50 [1]: 6.28 ± 0.4 µg/mL (≈ 11.6 µM)
- IC50 [2]: 9.15 ± 0.5 µg/mL (≈ 16.8 µM)
Structure (SMILES): COc1cccc2c1C(=O)c1c(O)c3c(c(O)c1C2=O)C[C@@](O)(C(=O)CO)C[C@@H]3O[C@H]1C[C@H](N)[C@H](O)[C@H](C)O1 [Doxorubicin]
